# From PubChem BioAssay AID2685 (National Center for Advancing Translational Sciences (NCATS), 2010)
# The list shows a part of the results. Shown are side measurements of this screen, not its main read-out; they come without a call. The list favours compounds with an active or inconclusive main result. Words in brackets tell the shape of the fitted curve; partial curves, single points and poor fits give uncertain potencies.
# Test: qHTS Assay for Lipid Storage Modulators in Drosophila S3 Cells;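 on cell number change: cells counted by Cell Tracker Red CMTPX staining in the red channel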
# Conditions: BODIPY lipid droplet fluorescence, 18-24 h; for cell number change: measured here: cell count max response, cells fed with added oleic acid
# Summary of the method: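 Drosophila S3 cells loaded with oleic acid (400 uM, as added) and compounds at several concentrations; lipid droplets imaged by 488-nm laser-scanning cytometry, 500–530 nm intensity and object ratio to cell channel. Percent activity normalized to 20 uM Triacsin C.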
# [1] = measured here: lipid fluorescence (Fed channel) AC50, cells fed with added oleic acid
# [2] = measured here: cell number channel AC50, cells fed with added oleic acid
SMILES,cell number change [%],AC50 [1],AC50 [2]
COc1ccc(N(CC(=O)NCCSc2ccccn2)S(C)(=O)=O)cc1Cl,0.323,"14.6 µM [rising, single point]",
CN(CC(=O)Nc1ccc(Cl)c(Cl)c1)C(=O)c1cccc2cccnc12,-1.35,"16.4 µM [falling, single point]",
CC(C)(C)NC(=O)c1cccc(NC(=O)c2ccc(NC(=O)c3ccco3)cc2)c1,-23.8,,
O=C(Cc1cccs1)Nc1nncs1,,"0.231 µM [falling, full curve]",
c1cc2c(cc1C1=Nn3c(nnc3C3CCCCC3)SC1)OCO2,,"0.00461 µM [rising, full curve, poor fit]","0.00651 µM [rising, full curve, poor fit]"
O=C(CCC(=O)N(CC(=O)NC1CCCCC1)c1ccc(F)cc1)Nc1nccs1,14.8,"6.51 µM [falling, single point]",
CC(=O)NNc1cc(N2CCOCC2)nc(N2CCOCC2)n1,13.1,,
Cc1noc(C)c1C(=O)N(CC(=O)NC1CCCC1)Cc1ccccc1F,-54.1,"1.84 µM [falling, partial curve]","1.03 µM [falling, partial curve]"
O=C1c2ccccc2C(=O)C1c1ccccc1F,15.3,,
S=C(Nc1ccc(Cl)cc1Cl)Nn1cnnc1,2.93,"0.291 µM [rising, full curve, poor fit]","0.366 µM [rising, full curve, poor fit]"
COC(=O)c1sc(S(=O)(=O)NCCC(=O)O)c(C(=O)OC)c1C,50.2,,
Cc1cc2oc(=O)cc(CSc3nc(N)cc(N)n3)c2cc1C,80.3,"2.31 µM [rising, partial curve]","2.31 µM [rising, full curve]"
Cc1cc(-c2csc(N)n2)c(C)n1CCC(C)C,35.4,"6.51 µM [falling, single point]","8.2 µM [rising, partial curve, poor fit]"
O=c1oc(-c2ccccc2NS(=O)(=O)c2ccccc2)nc2ccccc12,31.7,"0.366 µM [rising, partial curve]","0.92 µM [rising, full curve, poor fit]"
O=C(NCCC1=CCCCC1)C1CCCN(S(=O)(=O)c2cccc3cccnc23)C1 (stereo not drawn),-2.28,,
Nc1cccnc1Oc1ccc(F)cc1,36.7,,"0.0058 µM [rising, full curve, poor fit]"
O=C(CN1CCc2cc3c(cc2C1)OCCCO3)Nc1c(F)cccc1F,-2.65,,
NC(=O)C1CCN(Cc2nc3c(Br)cc(Br)cc3c(=O)[nH]2)CC1,60.4,"29.1 µM [rising, single point]","18.4 µM [rising, single point]"
CO[C@@]12[C@H](COC(N)=O)C3=C(C(=O)C(C)=C(N)C3=O)N1C[C@@H]1N[C@@H]12,-35.9,"1.16 µM [falling, full curve]","1.3 µM [falling, full curve, poor fit]"
NC(=O)c1ccc(NC(=O)CS(=O)(=O)c2cn(CC(=O)N3CCCCC3)c3ccccc23)cc1,27.2,"6.51 µM [rising, single point]",

SMILES,cell number change [%],AC50 [1],AC50 [2]
CCOc1ccc(NC(=O)CS(=O)(=O)c2cn(C)c3ccccc23)cc1,1.72,"6.51 µM [rising, single point]","6.51 µM [rising, single point]"
CN(C)S(=O)(=O)c1ccc(C(=O)OCC(=O)NCc2ccco2)cc1,-21.6,,
CCn1c(SCC(=O)Nc2ccc(N(C)C)cc2)nnc1C1CC1,11.2,"1.16 µM [falling, single point]",
CCCNC(=O)COC(=O)c1ccccc1OCC(=O)Nc1ccc(Br)cc1,27.7,"0.92 µM [rising, full curve]",
COc1ccc(C)cc1Nc1nc(-c2ccccc2O)nc2ccccc12,10.7,,
O=C(NCCCCc1ccccc1)C1CC(c2cccc([N+](=O)[O-])c2)=NO1 (stereo not drawn),-22.6,"0.146 µM [falling, full curve, poor fit]",
Cc1ccc(C(C(=O)NC2CCCCC2)N(C(=O)c2csnn2)C2CCCC2)o1 (stereo not drawn),-59,"2.91 µM [falling, full curve]","16.4 µM [falling, partial curve]"
CC1CCc2c(sc3ncnc(N4CCOCC4)c23)C1 (stereo not drawn),-25.8,"29.1 µM [rising, single point]",
CCOc1ccc(C(C)=O)cc1CN1C(=O)NC2(CCCCCCC2)C1=O,103,,"0.146 µM [rising, full curve, poor fit]"
CCN(CC(=O)Nc1ccc(NC(C)=O)cc1)C(=O)c1ccccc1Sc1ccccc1C#N,-22.3,"20.6 µM [rising, partial curve, poor fit]",
CCOC(=O)C1CCN(S(=O)(=O)c2ccc3c(c2)CC(=O)N3)CC1,1.73,"16.4 µM [falling, single point]",
O=C(NCc1ccccc1CN1CCCC1)c1cccc(S(=O)(=O)N2CCOCC2)c1,5.48,"6.51 µM [rising, single point]",
CCOC(=O)C1CCCN(Cc2nc(CC3CC3)no2)C1 (stereo not drawn),-4.95,"29.1 µM [rising, single point]",
Cc1cc(OCC(=O)NC2CC2)c2c(C)c(C)c(=O)oc2c1,1.32,,
CCn1cc([N+](=O)[O-])c(C(=O)N2CCN(C(=O)c3ccco3)CC2)n1,-15,"0.326 µM [rising, full curve, poor fit]",
CC(=O)C(Cl)C(=O)Nc1ccccc1 (stereo not drawn),-15,,
CC(=O)c1cccc(NS(=O)(=O)c2csc(C(N)=O)c2)c1,-19.9,"0.146 µM [falling, full curve]",
CC(C)c1ccc(-n2nnnc2SCC(=O)NC2CC2)cc1,-38.2,"29.1 µM [falling, single point]","23.1 µM [falling, partial curve, poor fit]"
CCOC(=O)c1ccc(NC(=O)CSc2nnc(CC)o2)cc1,31.9,"20.6 µM [rising, single point]","0.731 µM [rising, partial curve]"

# Exported with bars between the fields: 2 of the compounds above
SMILES | cell number change [%] | AC50 [1] | AC50 [2]
O=C(NCCCCc1ccccc1)C1CC(c2cccc([N+](=O)[O-])c2)=NO1 (stereo not drawn) | -22.6 | 0.146 µM [falling, full curve, poor fit] | 
Cc1ccc(C(C(=O)NC2CCCCC2)N(C(=O)c2csnn2)C2CCCC2)o1 (stereo not drawn) | -59 | 2.91 µM [falling, full curve] | 16.4 µM [falling, partial curve]
